Primary screen of a compound library

Amino acid sequences for entries named in this document (tags omitted).
UniProt E9BF75, entry or part of it: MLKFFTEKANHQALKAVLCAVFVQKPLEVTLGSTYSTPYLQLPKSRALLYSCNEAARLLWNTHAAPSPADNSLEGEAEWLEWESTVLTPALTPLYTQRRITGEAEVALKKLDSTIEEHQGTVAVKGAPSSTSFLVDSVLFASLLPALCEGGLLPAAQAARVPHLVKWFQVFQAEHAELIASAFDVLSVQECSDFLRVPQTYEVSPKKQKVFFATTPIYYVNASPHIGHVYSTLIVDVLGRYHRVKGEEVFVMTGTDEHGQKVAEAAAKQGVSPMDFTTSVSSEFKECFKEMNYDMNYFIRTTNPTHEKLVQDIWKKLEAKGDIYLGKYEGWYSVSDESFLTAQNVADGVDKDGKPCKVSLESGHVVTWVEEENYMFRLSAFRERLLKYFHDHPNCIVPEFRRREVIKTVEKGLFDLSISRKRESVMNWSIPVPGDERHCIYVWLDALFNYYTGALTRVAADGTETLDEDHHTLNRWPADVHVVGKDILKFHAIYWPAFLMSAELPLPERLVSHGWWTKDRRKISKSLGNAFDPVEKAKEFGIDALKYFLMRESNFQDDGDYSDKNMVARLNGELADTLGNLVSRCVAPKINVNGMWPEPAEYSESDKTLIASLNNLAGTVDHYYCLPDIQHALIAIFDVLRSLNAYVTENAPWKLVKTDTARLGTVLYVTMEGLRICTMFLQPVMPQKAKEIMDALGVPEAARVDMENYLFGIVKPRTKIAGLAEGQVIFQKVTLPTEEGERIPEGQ

The values are deposited in ChEMBL (CHEMBL3988442, “University of Dundee, Small-Polar-MMV Screening Library” (2021)).

Results are percentages, as filed. How 0% and 100% were set is not recorded. Most values in the screen are low, and negative values occur. The compounds are a random part of those screened.

A: 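Primary screen of methionyl-tRNA synthetase; the read-out is not stated. Target: Methionyl-tRNA synthetase (putative), Leishmania donovani (UniProt E9BF75). The test concentration is not given. Values are per cent inhibition. Of about 68,000 compounds tested this way, about 24 (0.035%) reached 50% or more in at least one test.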
B: 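Assay on Mycobacterium tuberculosis, filed only as a heat shock assay from Cornell; the read-out is not stated. The concentration is filed as 10 mM, unlikely as a test dose, so the dose is not known. Direction is inferred from retests: higher values go with stronger inhibition. Size under these conditions: about 69,000 compounds, about 930 of them at 50% or above in at least one test.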

With COc1ccc(C(=O)N2CCN(C(=O)c3csc(C(C)C)n3)CC2)cc1 the screen gave A: 6.115%; B: -13.07%.
With CN(Cc1cncs1)C1CCN(C(=O)OC(C)(C)C)CC1 the screen gave A: 17.18%; B: -26.76%.
With O=C(O)C(F)(F)F.O=C(O)C(F)(F)F.O=C(c1n[nH]c2c1CN(C1CCOC1)CC2)N1CCOCC1 (stereo not given) the screen gave B: -3.899%.
With Cc1ccsc1CN(C)Cn1nccc1-c1cccnc1 the screen gave A: 8.564%; B: 3.201%.
With CCc1nc(C2CCCN(C(=O)c3cc(C(C)C)[nH]n3)C2)no1 (stereo not given) the screen gave A: 6.024%; B: -11.7%.
With CCCN(Cc1cccc(OCCO)c1)Cc1ccccc1OC the screen gave A: 10.14%; B: -15.65%.
With CC(C)(O)c1cc(CC2(NCc3ccco3)COC2)no1 the screen gave A: 6.441%; B: -8.025%.
With CN(C)[C@H]1CCCCN(Cc2ccccc2Cn2cccn2)C1 the screen gave A: 1.031%; B: -11.97%.
With CN(C)CCN(C)C(=O)c1cn(CC2CCCCC2)nn1 the screen gave A: 18.58%; B: -10.18%.
With O=C1CC(c2cccnc2)c2c(c(C(=O)O)cn2-c2ccccc2F)N1 (stereo not given) the screen gave A: 10.08%; B: 27.67%.
With COc1ccc2[nH]c(C[C@@H]3C[C@@H](C(C)C)[C@H](CN(C)C)C=C3C)nc2c1 the screen gave A: 10.44%; B: -13.55%.
With COc1ccc2c(c1)CCCC2CC(=O)NCC(=O)O (stereo not given) the screen gave A: 8.761%; B: -140.6%.
With COc1cc(CNC(=O)c2c(C)noc2C)ccn1 the screen gave A: 12.02%; B: -29.96%.
With O=C(c1cccc2c1OCO2)N1CCC(N2CCCC2)CC1 the screen gave A: 15.67%; B: -5.189%.
With c1ccn2c(C3CCCN(c4ncnc5c4CCNC5)C3)nnc2c1 (stereo not given) the screen gave A: 13.92%; B: -41.74%.
With CCCN(Cc1cccnc1)C(=O)C1CCNC1 (stereo not given) the screen gave A: 3.833%; B: -6.008%.
With CCC(NC(=O)c1c(C(=O)O)cnn1C)c1ccc(C)cc1C (stereo not given) the screen gave A: 6.757%; B: -12.88%.
With CCN1CCCC1CNCc1cc2cc(OC)c(OC)cc2[nH]c1=O (stereo not given) the screen gave A: 11.55%; B: 9.614%.
With CC(C)c1noc(C(C)N2CCN(Cc3nc4ccccc4[nH]3)CC2)n1 (stereo not given) the screen gave A: 9.422%; B: -9.466%.
With COc1ccc(CN2CC[C@H](c3nc4cccc(C(N)=O)c4[nH]3)C2)cc1 the screen gave A: 12.78%; B: -18.62%.
With COC(=O)Cn1c(=O)cc(C(F)F)c2c(C)nn(CC(F)F)c21 the screen gave A: 22.36%; B: 11.38%.
With CCN(C)c1ncnc2c1CCN(C(=O)c1cccn1C)CC2 the screen gave A: 7.143%; B: -0.4567%.
With COc1cccc2ccn(CC(=O)NC(C)C)c12 the screen gave A: 5.152%; B: -15.68%.
With CC1CN(CC(=O)NC2CCOCC2)CCN1Cc1nccn1C (stereo not given) the screen gave A: 17.46%; B: -28.05%.
With CN1CCc2onc(CNc3ncccn3)c2C1.O=C(O)C(F)(F)F.O=C(O)C(F)(F)F the screen gave B: -9.559%.
With O=C(O)C(F)(F)F.O=C1CC[C@]2(CC[C@@H](NC3CCOCC3)CC2)N1Cc1ccccc1 the screen gave B: -7.29%.
With O=C(O)C(F)(F)F.[H][C@@]12COC[C@]1(COc1ccccn1)CN(C(=O)c1c(C)noc1C)C2 the screen gave B: -29.95%.
With Cn1c(CS(=O)(=O)c2ccc(Cl)cc2)cc(=O)n(C)c1=O the screen gave A: 0.7792%; B: 22.24%.
With Cc1cnc2c(C(=O)N(C)Cc3cc(C4CC4)[nH]n3)cnn2c1 the screen gave A: 7.508%; B: 10.21%.
With OC1CCN(c2nc(-c3ccccc3)no2)CC1 the screen gave A: 13.74%; B: -9.302%.
With CN(C)CCn1c2c(ccc1=O)CC(NC(=O)c1cnccn1)CC2 (stereo not given) the screen gave A: 6.557%.
With O=C1CCC(C(=O)Nc2ccc(=O)n(Cc3ccc(Cl)c(Cl)c3)c2)N1 (stereo not given) the screen gave A: 13.91%; B: -6.953%.
With CCCS(=O)(=O)N1Cc2c(ncn2Cc2ccccc2)C[C@H]1C(=O)OC the screen gave A: 12.03%; B: -21.98%.
With Cc1nn(C)c(C)c1CNC1CCOc2ccccc21 (stereo not given) the screen gave A: 5.576%; B: -3.591%.
With COCC(=O)N1CCN(S(=O)(=O)c2ccccc2)[C@H]2CS(=O)(=O)C[C@H]21 the screen gave A: 16.51%.
With Cn1ccnc1CN1CCN2C[C@H](OCc3ccccc3)C[C@H]2C1 the screen gave A: 14.81%.
With CC(C)NC(=O)Cn1cc(-c2ccccc2)ncc1=O the screen gave A: 14.98%; B: -13.22%.
With Cc1occc1C(=O)Nc1ccnc(OC2CCOC2)c1 (stereo not given) the screen gave A: 9.735%; B: -1.426%.
With CNC(=O)C1(CCCc2ccccn2)CN(Cc2scnc2C)C1 the screen gave A: 6.383%; B: -1.215%.
With CS(=O)(=O)N1CC[C@@H]2OC(COCC(=O)N3CCCC3)CC[C@@H]21 (stereo not given in full) the screen gave A: 5.625%.
With CN(C)CC1(O)CCN(C(=O)Cc2ccc3ccccc3c2)C1 (stereo not given) the screen gave A: 21.07%; B: -11.7%.
With CSCC[C@H](NC(=O)CCn1cc(C(C)=O)c2ccccc21)C(=O)O the screen gave A: 12.66%; B: 13.21%.
With CCc1cc(N[C@H]2CCC[C@H]2CO)n2nc(C)c(C)c2n1 the screen gave A: 9.348%; B: 3.967%.
With CC1c2ncc(COCc3ccccn3)n2CCN1C1CCCC1 (stereo not given) the screen gave A: 10.75%.

Some entries from above, unchanged:

| structure | A | B |
|---|---|---|
| `CC(C)NC(=O)Cn1cc(-c2ccccc2)ncc1=O` | 14.98% | -13.22% |
| `CCN1CCCC1CNCc1cc2cc(OC)c(OC)cc2[nH]c1=O` (stereo not given) | 11.55% | 9.614% |
| `COc1ccc2[nH]c(C[C@@H]3C[C@@H](C(C)C)[C@H](CN(C)C)C=C3C)nc2c1` | 10.44% | -13.55% |
| `CC(C)c1noc(C(C)N2CCN(Cc3nc4ccccc4[nH]3)CC2)n1` (stereo not given) | 9.422% | -9.466% |
| `COc1ccc(CN2CC[C@H](c3nc4cccc(C(N)=O)c4[nH]3)C2)cc1` | 12.78% | -18.62% |